Experimental data from patent US12516015B2 (AMALIVE LIMITED, priority 2009, dated 2026).
Where two headings read alike, the source gives them in different places.

NCCC[C@H](N)C(=O)O.O=C(O)Cc1ccccc1 [L-ornithine phenyl acetate]
Form II: Results (crystalline form) (Test 148, Anti-Solvent (IPA) Addition Elevated Temperature, diethyl ether) | Results (crystalline form) (Test 149, Anti-Solvent (IPA) Addition Ambient Temperature, diethyl ether) | Results (crystalline form) (Test 150, Anti-Solvent (IPA) Addition (4° C.), diethyl ether) | Results (crystalline form) (Test 151, Anti-Solvent (IPA) Addition (−21° C.), diethyl ether) | Results (crystalline form) (Test 152, Anti-Solvent (Ethanol) Addition Ambient Temperature, diethyl ether) | Results (crystalline form) (Test 159, Anti-Solvent (IPA) Addition Elevated Temperature, ethylene glycol) | Results (crystalline form) (Test 160, Anti-Solvent (IPA) Addition Ambient Temperature, ethylene glycol) | Results (crystalline form) (Test 161, Anti-Solvent (IPA) Addition (4° C.), ethylene glycol) | Results (crystalline form) (Test 162, Anti-Solvent (IPA) Addition (−21° C.), ethylene glycol) | Results (crystalline form) (Test 163, Anti-Solvent (Ethanol) Addition Ambient Temperature, ethylene glycol) | Results (crystalline form) (Test 164, Anti-Solvent (Ethanol) Addition (4° C.), ethylene glycol) | Results (crystalline form) (Test 165, Anti-Solvent (Ethanol) Addition (−21° C.), ethylene glycol) | Results (crystalline form) (Test 170, Anti-Solvent (IPA) Addition Elevated Temperature, meOAc/water (20%)) | Results (crystalline form) (Test 171, Anti-Solvent (IPA) Addition Ambient Temperature, meOAc/water (20%)) | Results (crystalline form) (Test 172, Anti-Solvent (IPA) Addition (4° C.), meOAc/water (20%)) | Results (crystalline form) (Test 173, Anti-Solvent (IPA) Addition (−21° C.), meOAc/water (20%)) | Results (crystalline form) (Test 174, Anti-Solvent (Ethanol) Addition Ambient Temperature, meOAc/water (20%)) | Results (crystalline form) (Test 176, Anti-Solvent (Ethanol) Addition (−21° C.), meOAc/water (20%)) | Results (crystalline form) (Test 181, Anti-Solvent (IPA) Addition Elevated Temperature, meOH/acetone (50:50)) | Results (crystalline form) (Test 182, Anti-Solvent (IPA) Addition Ambient Temperature, meOH/acetone (50:50)) | Results (crystalline form) (Test 183, Anti-Solvent (IPA) Addition (4° C.), meOH/acetone (50:50)) | Results (crystalline form) (Test 184, Anti-Solvent (IPA) Addition (−21° C.), meOH/acetone (50:50)) | Results (crystalline form) (Test 185, Anti-Solvent (Ethanol) Addition Ambient Temperature, meOH/acetone (50:50)) | Results (crystalline form) (Test 192, Anti-Solvent (IPA) Addition Elevated Temperature, DMF) | Results (crystalline form) (Test 193, Anti-Solvent (IPA) Addition Ambient Temperature, DMF) | Results (crystalline form) (Test 194, Anti-Solvent (IPA) Addition (4° C.), DMF) | Results (crystalline form) (Test 195, Anti-Solvent (IPA) Addition (−21° C.), DMF) | Results (crystalline form of precipitate) (Test 196, Anti-Solvent (Ethanol) Addition Ambient Temperature, solvent DMF) | Results (crystalline form of precipitate) (Test 198, Anti-Solvent (Ethanol) Addition (−21° C.), solvent DMF) | Results (crystalline form of precipitate) (Test 204, Anti-Solvent (IPA) Addition Ambient Temperature, solvent 2-butanol) | Results (crystalline form of precipitate) (Test 205, Anti-Solvent (IPA) Addition (4° C.), solvent 2-butanol) | Results (crystalline form of precipitate) (Test 206, Anti-Solvent (IPA) Addition (−21° C.), solvent 2-butanol) | Results (crystalline form of precipitate) (Test 207, Anti-Solvent (Ethanol) Addition Ambient Temperature, solvent 2-butanol) | Results (crystalline form of precipitate) (Test 214, Anti-Solvent (IPA) Addition Elevated Temperature, solvent cumene) | Results (crystalline form of precipitate) (Test 215, Anti-Solvent (IPA) Addition Ambient Temperature, solvent cumene) | Results (crystalline form of precipitate) (Test 216, Anti-Solvent (IPA) Addition (4° C.), solvent cumene) | Results (crystalline form of precipitate) (Test 217, Anti-Solvent (IPA) Addition (−21° C.), solvent cumene) | Results (crystalline form of precipitate) (Test 218, Anti-Solvent (Ethanol) Addition Ambient Temperature, solvent cumene) | Results (crystalline form of precipitate) (Test 219, Anti-Solvent (Ethanol) Addition (4° C.), solvent cumene) | Results (crystalline form of precipitate) (Test 225, Anti-Solvent (IPA) Addition Elevated Temperature, solvent ethyl formate) | Results (crystalline form of precipitate) (Test 226, Anti-Solvent (IPA) Addition Ambient Temperature, solvent ethyl formate) | Results (crystalline form of precipitate) (Test 227, Anti-Solvent (IPA) Addition (4° C.), solvent ethyl formate) | Results (crystalline form of precipitate) (Test 228, Anti-Solvent (IPA) Addition (−21° C.), solvent ethyl formate) | Results (crystalline form of precipitate) (Test 229, Anti-Solvent (Ethanol) Addition Ambient Temperature, solvent ethyl formate) | Results (crystalline form of precipitate) (Test 236, Anti-Solvent (IPA) Addition Elevated Temperature, solvent isobutyl acetate) | Results (crystalline form of precipitate) (Test 237, Anti-Solvent (IPA) Addition Ambient Temperature, solvent isobutyl acetate) | Results (crystalline form of precipitate) (Test 238, Anti-Solvent (IPA) Addition (4° C.), solvent isobutyl acetate) | Results (crystalline form of precipitate) (Test 240, Anti-Solvent (Ethanol) Addition Ambient Temperature, solvent isobutyl acetate) | Results (crystalline form of precipitate) (Test 241, Anti-Solvent (Ethanol) Addition (4° C.), solvent isobutyl acetate) | Results (crystalline form of precipitate) (Test 247, Anti-Solvent (IPA) Addition Elevated Temperature, solvent 3-methyl-1-butanol) | Results (crystalline form of precipitate) (Test 248, Anti-Solvent (IPA) Addition Ambient Temperature, solvent 3-methyl-1-butanol) | Results (crystalline form of precipitate) (Test 249, Anti-Solvent (IPA) Addition (4° C.), solvent 3-methyl-1-butanol) | Results (crystalline form of precipitate) (Test 250, Anti-Solvent (IPA) Addition (−21° C.), solvent 3-methyl-1-butanol) | Results (crystalline form of precipitate) (Test 251, Anti-Solvent (Ethanol) Addition Ambient Temperature, solvent 3-methyl-1-butanol) | Results (crystalline form of precipitate) (Test 258, Anti-Solvent (IPA) Addition Elevated Temperature, solvent anisole) | Results (crystalline form of precipitate) (Test 259, Anti-Solvent (IPA) Addition Ambient Temperature, solvent anisole) | Results (crystalline form of precipitate) (Test 260, Anti-Solvent (IPA) Addition (4° C.), solvent anisole) | Results (crystalline form of precipitate) (Test 262, Anti-Solvent (Ethanol) Addition Ambient Temperature, solvent anisole) | Results (crystalline form of precipitate) (Test 263, Anti-Solvent (Ethanol) Addition (4° C.), solvent anisole) | Results (crystalline form of precipitate) (Test 269, Anti-Solvent (IPA) Addition Elevated Temperature, solvent IPA/isopropyl acetate (1:2)) | Results (crystalline form of precipitate) (Test 270, Anti-Solvent (IPA) Addition Ambient Temperature, solvent IPA/isopropyl acetate (1:2)) | Results (crystalline form of precipitate) (Test 271, Anti-Solvent (IPA) Addition (4° C.), solvent IPA/isopropyl acetate (1:2)) | Results (crystalline form of precipitate) (Test 272, Anti-Solvent (IPA) Addition (−21° C.), solvent IPA/isopropyl acetate (1:2)) | Results (crystalline form of precipitate) (Test 273, Anti-Solvent (Ethanol) Addition Ambient Temperature, solvent IPA/isopropyl acetate (1:2)) | Results (crystalline form of precipitate) (Test 274, Anti-Solvent (Ethanol) Addition (4° C.), solvent IPA/isopropyl acetate (1:2))
Form III: Results (crystalline form of precipitate) (Test 203, Anti-Solvent (IPA) Addition Elevated Temperature, solvent 2-butanol) | Results (crystalline form of precipitate) (Test 239, Anti-Solvent (IPA) Addition (−21° C.), solvent isobutyl acetate)
Form II/IV: Results (crystalline form of precipitate) (Test 261, Anti-Solvent (IPA) Addition (−21° C.), solvent anisole)
No Solid: Results (crystalline form of precipitate) (Test 280, Anti-Solvent (IPA) Addition Elevated Temperature, solvent EtOH: 1% H20) | Results (crystalline form of precipitate) (Test 281, Anti-Solvent (IPA) Addition Ambient Temperature, solvent EtOH: 1% H20) | Results (crystalline form of precipitate) (Test 282, Anti-Solvent (IPA) Addition (4° C.), solvent EtOH: 1% H20) | Results (crystalline form of precipitate) (Test 283, Anti-Solvent (IPA) Addition (−21° C.), solvent EtOH: 1% H20) | Results (crystalline form of precipitate) (Test 284, Anti-Solvent (Ethanol) Addition Ambient Temperature, solvent EtOH: 1% H20) | Results (crystalline form of precipitate) (Test 285, Anti-Solvent (Ethanol) Addition (4° C.), solvent EtOH: 1% H20) | Results (crystalline form of precipitate) (Test 286, Anti-Solvent (Ethanol) Addition (−21° C.), solvent EtOH: 1% H20) | Results (crystalline form of precipitate) (Test 291, Anti-Solvent (IPA) Addition Elevated Temperature, solvent EtOH: 3% H20)
Form I/II: Results (crystalline form) (Test 154, Anti-Solvent (Ethanol) Addition (−21° C.), diethyl ether) | Results (crystalline form) (Test 175, Anti-Solvent (Ethanol) Addition (4° C.), meOAc/water (20%)) | Results (crystalline form) (Test 187, Anti-Solvent (Ethanol) Addition (−21° C.), meOH/acetone (50:50)) | Results (crystalline form of precipitate) (Test 197, Anti-Solvent (Ethanol) Addition (4° C.), solvent DMF) | Results (crystalline form of precipitate) (Test 208, Anti-Solvent (Ethanol) Addition (4° C.), solvent 2-butanol) | Results (crystalline form of precipitate) (Test 209, Anti-Solvent (Ethanol) Addition (−21° C.), solvent 2-butanol) | Results (crystalline form of precipitate) (Test 220, Anti-Solvent (Ethanol) Addition (−21° C.), solvent cumene) | Results (crystalline form of precipitate) (Test 231, Anti-Solvent (Ethanol) Addition (−21° C.), solvent ethyl formate) | Results (crystalline form of precipitate) (Test 242, Anti-Solvent (Ethanol) Addition (−21° C.), solvent isobutyl acetate) | Results (crystalline form of precipitate) (Test 252, Anti-Solvent (Ethanol) Addition (4° C.), solvent 3-methyl-1-butanol) | Results (crystalline form of precipitate) (Test 253, Anti-Solvent (Ethanol) Addition (−21° C.), solvent 3-methyl-1-butanol)
Form I: Results (crystalline form) (Test 153, Anti-Solvent (Ethanol) Addition (4° C.), diethyl ether) | Results (crystalline form) (Test 186, Anti-Solvent (Ethanol) Addition (4° C.), meOH/acetone (50:50)) | Results (crystalline form of precipitate) (Test 230, Anti-Solvent (Ethanol) Addition (4° C.), solvent ethyl formate) | Results (crystalline form of precipitate) (Test 264, Anti-Solvent (Ethanol) Addition (−21° C.), solvent anisole) | Results (crystalline form of precipitate) (Test 275, Anti-Solvent (Ethanol) Addition (−21° C.), solvent IPA/isopropyl acetate (1:2))
